Data taken from article doi:10.1101/2022.01.28.478199.

Sequences of proteins named here, by UniProt entry; tags and fusion partners are left off. A change or cut given only in a name is not applied to a line headed by its entry. Residues count along the entry.
UniProt P33416, residues 45-811: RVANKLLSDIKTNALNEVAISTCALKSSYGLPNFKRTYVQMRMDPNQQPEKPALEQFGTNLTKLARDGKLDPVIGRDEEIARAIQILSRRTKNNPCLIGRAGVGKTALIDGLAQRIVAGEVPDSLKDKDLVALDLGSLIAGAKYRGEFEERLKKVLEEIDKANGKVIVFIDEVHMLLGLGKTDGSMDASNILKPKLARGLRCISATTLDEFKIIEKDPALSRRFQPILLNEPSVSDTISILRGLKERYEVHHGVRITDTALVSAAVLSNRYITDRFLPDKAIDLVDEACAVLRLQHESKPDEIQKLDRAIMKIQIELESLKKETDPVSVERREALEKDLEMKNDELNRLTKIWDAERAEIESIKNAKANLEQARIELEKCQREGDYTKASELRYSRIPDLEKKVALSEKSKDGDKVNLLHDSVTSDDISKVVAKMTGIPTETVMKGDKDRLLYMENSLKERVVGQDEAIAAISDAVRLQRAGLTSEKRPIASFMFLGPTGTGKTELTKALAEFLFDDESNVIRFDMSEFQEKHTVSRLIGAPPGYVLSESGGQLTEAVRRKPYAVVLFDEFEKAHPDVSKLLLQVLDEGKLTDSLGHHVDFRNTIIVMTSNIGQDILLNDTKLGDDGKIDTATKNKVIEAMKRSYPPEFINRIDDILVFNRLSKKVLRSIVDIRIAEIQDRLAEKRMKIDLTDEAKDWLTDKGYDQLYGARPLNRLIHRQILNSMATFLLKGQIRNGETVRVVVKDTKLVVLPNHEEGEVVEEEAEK

Legend:
[1] = target: Hsp78-6xHis (wild-type Hsp78 with a C-terminal 6x polyhistidine-tag) (S. cerevisiae) (UniProt P33416); assay: affinity purification with mass spectrometry
[2] = target: Hsp78TR-6xHis (Hsp78 E216Q/E614Q Walker B mutant with a C-terminal 6x polyhistidine-tag) (S. cerevisiae) (UniProt P33416); assay: affinity purification with mass spectrometry

B1: Om45 (protein, UniProt P16547 1-393)
chain: MSSRIIVGSAALAAAITASIMVREQKAKGQRREGNVSAYYNGQEYGSSAPPQLGKLHNIKQGIKEDALSLKDALLGVSQKAREEAPKVTKRVISPEEDAQTRKQLGQKAKDSSSQSIFNWGFSEAERRKAIAIGEFDTAKKRFEEAVDRNEKELLSTVMREKKAALDRASIEYERYGRARDFNELSDKLDQQERNSNPLKRLLKNNTGDANTEEAAARSVQGWGDTAQEFGREELEEAKRNASSEPSEAQKRLDELKKIKEKGWFGYNKGEQSEQQIAERVARGLEGWGETAAQLSKDEMDDLRWNYENSKKQLDKNVSDAMDSLSKAKEDLKQYGSHWWSGWTSKVDNDKQALKDEAQKKYDEALKKYDEAKNKFKEWNDKGDGKFWSSKKD
[1]
  binding: no binding
[2]
  binding: no binding

These are yes or no findings as the source states them, for the method shown. In cells and extracts the contact can be indirect. A yes stands for co-enrichment or nearness to the bait. Other partners may have been found. No binding means not detected with the bait.
